Results are given in words; binding and its absence hold for the method and conditions named. In cells and extracts the contact can be indirect. Some results given as binding are weak or reduced against the parent protein; the word gives no strength.
T1: B-cell receptor-associated protein 31 (BAP31) (human (endogenous in HeLa)) (UniProt P51572)
T1 sequence: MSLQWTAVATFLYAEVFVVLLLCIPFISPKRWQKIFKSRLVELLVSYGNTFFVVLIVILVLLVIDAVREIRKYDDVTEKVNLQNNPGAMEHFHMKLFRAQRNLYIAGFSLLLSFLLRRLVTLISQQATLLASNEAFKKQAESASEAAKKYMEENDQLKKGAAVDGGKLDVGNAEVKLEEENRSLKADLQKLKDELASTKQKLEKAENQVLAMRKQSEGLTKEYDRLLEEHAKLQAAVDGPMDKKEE

The chains behind the UniProt entries cited, without tags or fusion partners.
UniProt Q0ZGT2: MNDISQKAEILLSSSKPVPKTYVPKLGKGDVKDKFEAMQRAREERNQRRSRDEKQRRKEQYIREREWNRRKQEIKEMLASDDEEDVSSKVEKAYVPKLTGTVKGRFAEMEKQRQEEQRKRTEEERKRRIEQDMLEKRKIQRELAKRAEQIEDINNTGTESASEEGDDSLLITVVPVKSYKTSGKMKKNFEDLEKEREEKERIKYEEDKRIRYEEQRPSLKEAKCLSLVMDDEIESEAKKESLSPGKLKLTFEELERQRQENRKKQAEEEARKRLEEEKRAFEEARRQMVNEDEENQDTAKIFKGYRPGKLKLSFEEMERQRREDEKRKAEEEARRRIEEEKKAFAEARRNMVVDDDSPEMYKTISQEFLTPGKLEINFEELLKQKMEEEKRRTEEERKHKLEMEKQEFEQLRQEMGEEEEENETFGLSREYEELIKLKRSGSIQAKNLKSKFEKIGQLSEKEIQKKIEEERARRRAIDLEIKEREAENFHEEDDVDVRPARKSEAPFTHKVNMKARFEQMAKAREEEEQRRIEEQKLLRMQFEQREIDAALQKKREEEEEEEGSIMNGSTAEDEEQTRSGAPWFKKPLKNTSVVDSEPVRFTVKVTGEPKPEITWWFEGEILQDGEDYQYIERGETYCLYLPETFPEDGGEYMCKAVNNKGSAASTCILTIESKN


Molecular target: T1, B-cell receptor-associated protein 31 (BAP31) (human (endogenous in HeLa))
Assay: co-IP; HeLa cell extracts immunoprecipitated with FM-1 and an irrelevant control antibody; precipitates analysed by western blotting with antibodies to BAP31, Drebrin, M-RIP, SPECC1L and Nexilin

binding | Molecule
binds | Nexilin (from UniProt Q0ZGT2 1-675)
binds | Drebrin (protein, UniProt Q16643 1-649) MAGVSFSGHRLELLAAYEEVIREESAADWALYTYEDGSDDLKLAASGEGGLQELSGHFENQKVMYGFCSVKDSQAALPKYVLINWVGEDVPDARKCACASHVAKVAEFFQGVDVIVNASSVEDIDAGAIGQRLSNGLARLSSPVLHRLRLREDENAEPVGTTYQKTDAAVEMKRINREQFWEQAKKEEELRKEEERKKALDERLRFEQERMEQERQEQEERERRYREREQQIEEHRRKQQTLEAEEAKRRLKEQSIFGDHRDEEEETHMKKSESEVEEAAAIIAQRPDNPREFFKQQERVASASAGSCDVPSPFNHRPGSHLDSHRRMAPTPIPTRSPSDSSTASTPVAEQIERALDEVTSSQPPPLPPPPPPAQETQEPSPILDSEETRAAAPQAWAGPMEEPPQAQAPPRGPGSPAEDLMFMESAEQAVLAAPVEPATADATEIHDAADTIETDTATADTTVANNVPPAATSLIDLWPGNGEGASTLQGEPRAPTPPSGTEVTLAEVPLLDEVAPEPLLPAGEGCATLLNFDELPEPPATFCDPEEVEGESLAAPQTPTLPSALEELEQEQEPEPHLLTNGETTQKEGTQASEGYFSQSQEEEFAQSEELCAKAPPPVFYNKPPEIDITCWDADPVPEEEEGFEGGD
